No constants are given. Whether binding was seen depends on the method and setting. In cells and extracts the contact can be indirect. Some results given as binding are weak or reduced against the parent protein; the word gives no strength.
Target: SARS-CoV-2 NSP9, 2xStrep-tagged (SARS-CoV-2) (UniProt P0DTD1)
Assay: co-IP

The chains behind the UniProt entries cited, without tags or fusion partners.
UniProt P37198: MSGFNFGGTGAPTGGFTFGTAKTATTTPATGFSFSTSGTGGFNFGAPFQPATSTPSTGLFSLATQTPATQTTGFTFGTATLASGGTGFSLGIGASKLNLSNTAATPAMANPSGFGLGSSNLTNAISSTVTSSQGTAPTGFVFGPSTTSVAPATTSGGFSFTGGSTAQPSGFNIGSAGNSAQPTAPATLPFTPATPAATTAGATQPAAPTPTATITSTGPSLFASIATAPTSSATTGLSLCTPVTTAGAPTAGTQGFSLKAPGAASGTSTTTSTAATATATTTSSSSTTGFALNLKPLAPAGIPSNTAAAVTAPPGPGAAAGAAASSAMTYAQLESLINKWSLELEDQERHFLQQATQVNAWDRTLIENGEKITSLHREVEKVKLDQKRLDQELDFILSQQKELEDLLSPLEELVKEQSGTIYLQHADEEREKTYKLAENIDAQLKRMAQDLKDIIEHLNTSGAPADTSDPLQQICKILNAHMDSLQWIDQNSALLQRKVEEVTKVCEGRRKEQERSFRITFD

## NUP62 (from UniProt P37198 1-522)
  binding: binds

Source: PMC8936114
